Measurements reported in publication PMC12120766, “Paclitaxel/Luteolin Coloaded Dual‐Functional Liposomes for Esophageal Cancer Therapy”.
Construct, isoform or probe ends are uncertain for at least one entry. For some assays here: Where cells or extracts were used, other partners may take part. Tags and fusion partners may be left off the protein sequences shown.

Columns and labels:
[1] = molecular target: T1, CTNNA1 (catenin alpha 1), native from KYSE-150 membrane (human (KYSE-150 cells)) (UniProt P35221); experiment: pull-down, SDS-PAGE and mass spectrometry; conditions: protein in an extract; label: biotin; single-stranded DNA
T1 sequence (looked up, limits assumed): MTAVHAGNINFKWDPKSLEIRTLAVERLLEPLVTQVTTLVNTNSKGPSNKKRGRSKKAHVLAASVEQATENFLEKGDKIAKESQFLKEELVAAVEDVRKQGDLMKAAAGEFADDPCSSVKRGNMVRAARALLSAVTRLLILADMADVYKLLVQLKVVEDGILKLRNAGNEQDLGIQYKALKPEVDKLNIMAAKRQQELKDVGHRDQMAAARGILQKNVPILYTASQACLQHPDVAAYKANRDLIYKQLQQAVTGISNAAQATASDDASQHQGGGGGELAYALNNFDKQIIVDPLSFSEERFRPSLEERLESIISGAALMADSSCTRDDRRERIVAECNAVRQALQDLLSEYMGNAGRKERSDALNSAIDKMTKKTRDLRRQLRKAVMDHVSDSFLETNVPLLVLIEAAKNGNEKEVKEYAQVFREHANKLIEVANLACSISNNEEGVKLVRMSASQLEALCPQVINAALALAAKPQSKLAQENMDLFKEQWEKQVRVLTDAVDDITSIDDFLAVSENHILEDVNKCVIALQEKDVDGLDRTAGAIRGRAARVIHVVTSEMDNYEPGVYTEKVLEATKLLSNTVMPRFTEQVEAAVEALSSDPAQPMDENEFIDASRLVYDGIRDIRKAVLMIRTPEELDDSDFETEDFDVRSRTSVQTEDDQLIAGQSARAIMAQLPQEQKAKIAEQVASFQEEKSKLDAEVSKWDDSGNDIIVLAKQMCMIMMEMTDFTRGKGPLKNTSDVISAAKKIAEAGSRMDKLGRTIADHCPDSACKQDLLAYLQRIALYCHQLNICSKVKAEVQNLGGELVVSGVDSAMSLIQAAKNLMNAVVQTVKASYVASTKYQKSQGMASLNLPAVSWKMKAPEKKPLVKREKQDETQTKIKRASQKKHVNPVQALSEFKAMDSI

CTNNA1 (catenin alpha 1) = molecular target: T2, CTNNA1 (catenin alpha 1) (UniProt P35221); experiment: MST; conditions: CTNNA1 antibody competitor; MST: 50 nM labeled CTNNA1 in 10 mM PBS pH 7.4, EA2 0.00153-50 uM in 10 mM PBST (0.05% Tween-20) pH 7.4; temperature not stated; protein details: RED-NHS dye label; single-stranded DNA
T2 sequence (looked up, limits assumed): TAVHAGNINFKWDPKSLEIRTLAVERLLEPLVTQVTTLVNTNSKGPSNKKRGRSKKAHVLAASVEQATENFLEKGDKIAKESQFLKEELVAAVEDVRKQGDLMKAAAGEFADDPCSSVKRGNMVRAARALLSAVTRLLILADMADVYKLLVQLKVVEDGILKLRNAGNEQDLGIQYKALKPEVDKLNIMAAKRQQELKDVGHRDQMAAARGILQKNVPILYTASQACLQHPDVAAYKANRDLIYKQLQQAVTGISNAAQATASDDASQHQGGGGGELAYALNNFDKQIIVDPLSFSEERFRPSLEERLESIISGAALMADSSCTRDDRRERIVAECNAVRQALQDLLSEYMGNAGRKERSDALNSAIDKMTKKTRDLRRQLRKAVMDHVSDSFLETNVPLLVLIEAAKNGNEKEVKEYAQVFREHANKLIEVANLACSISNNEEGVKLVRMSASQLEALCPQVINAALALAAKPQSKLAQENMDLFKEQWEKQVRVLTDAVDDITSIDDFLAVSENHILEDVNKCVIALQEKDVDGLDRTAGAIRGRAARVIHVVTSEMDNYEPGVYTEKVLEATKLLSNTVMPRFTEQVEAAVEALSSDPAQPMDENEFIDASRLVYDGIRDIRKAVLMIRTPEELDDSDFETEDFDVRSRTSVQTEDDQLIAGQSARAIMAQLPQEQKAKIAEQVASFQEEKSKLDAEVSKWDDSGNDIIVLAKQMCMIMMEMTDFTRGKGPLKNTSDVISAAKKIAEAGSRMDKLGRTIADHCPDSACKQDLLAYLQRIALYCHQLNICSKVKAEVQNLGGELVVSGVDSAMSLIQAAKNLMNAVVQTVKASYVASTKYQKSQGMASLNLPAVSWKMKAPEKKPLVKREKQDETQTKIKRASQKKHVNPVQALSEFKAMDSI

Sequence	binding result [1]	Kd (CTNNA1 (catenin alpha 1))
AGCCTAAGCCTGTCCAGGAATCGTGCAGCCATAGCCTAAGCCTGTCCAGGAATCGATGGCTTAGTGGCACGATTAGGTC [EA2, biotinylated]	binds	–
AGCCTAAGCCTGTCCAGGAATCGTGCAGCCATAGCCTAAGCCTGTCCAGGAATCGATGGCTTAGTGGCACGATTAGGTC [EA2]	–	300 µM
